The target of assay [1] is T1, ACKR1 Gly42 variant N-terminally fused to Nanoluciferase (human) (UniProt Q16570).
T1 sequence: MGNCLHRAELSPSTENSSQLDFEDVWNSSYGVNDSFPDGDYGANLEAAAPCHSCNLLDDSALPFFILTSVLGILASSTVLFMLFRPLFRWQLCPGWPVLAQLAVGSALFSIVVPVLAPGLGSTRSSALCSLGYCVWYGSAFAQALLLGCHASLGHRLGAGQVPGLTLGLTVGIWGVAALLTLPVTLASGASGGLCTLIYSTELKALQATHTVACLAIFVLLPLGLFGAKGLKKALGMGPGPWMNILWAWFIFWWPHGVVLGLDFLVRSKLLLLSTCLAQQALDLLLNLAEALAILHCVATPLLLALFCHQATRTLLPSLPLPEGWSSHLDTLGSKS
Nature of the assay: FRET or BRET; NanoBRET: HEK293T cells with Nanoluciferase-ACKR1 variant (1 × 10^5 cells per well) incubated 2 h on ice with AZDye 488-labelled chemokines, 0.1 nM to 1 mM as printed; coelenterazine H; three-parameter Hill fit; only the binder purified. (In general: In BRET a luciferase serves as donor, and the signal depends on an acceptor being close.)

The chains behind the UniProt entries cited, without tags or fusion partners. Residues count along the entry.
UniProt P09341, residues 35-107: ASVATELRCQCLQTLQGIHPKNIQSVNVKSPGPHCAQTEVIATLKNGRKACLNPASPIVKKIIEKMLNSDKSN

Assay [2] has as its target T2, ACKR1 Asp42 variant N-terminally fused to Nanoluciferase (human) (UniProt Q16570).
T2 sequence: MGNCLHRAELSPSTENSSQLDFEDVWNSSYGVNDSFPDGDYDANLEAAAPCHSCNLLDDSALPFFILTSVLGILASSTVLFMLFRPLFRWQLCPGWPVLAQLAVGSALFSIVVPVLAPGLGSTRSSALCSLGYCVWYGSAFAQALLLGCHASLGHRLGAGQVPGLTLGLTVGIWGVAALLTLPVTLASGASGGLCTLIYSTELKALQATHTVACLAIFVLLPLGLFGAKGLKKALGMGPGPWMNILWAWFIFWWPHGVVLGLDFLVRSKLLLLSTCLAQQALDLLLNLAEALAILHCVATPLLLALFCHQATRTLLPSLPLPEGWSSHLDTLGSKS
Described as above.

These are yes or no findings as the source states them, for the method shown. In cells and extracts the contact can be indirect. Some binding calls cover weakened binding; strength is not graded here. Where a sequence is shown, tags or fusion partners need not be part of it.

Turning to “AZDye 488-CXCL1 (from UniProt P09341 35-107) (ligand)”, the binding result in assay [1] and in assay [2] was “binds” throughout.

B1: AZDye 488-CXCL11 (ligand, UniProt O14625 22-94)
chain: FPMFKRGRCLCIGPGVKAVKVADIEKASIMYPSNNCDKIEVIITLKENKGQRCLNPKSKQARLIIKKVERKNF
With B1, the binding entry in assay [1] and in assay [2] was “binds” each time.

(Values after publication PMC12435897.)
